Laboratory results from paper PMC12670160, “A drug-repurposing screen of FDA- and EMA-approved drugs identifies two NF-κB inhibitors active against eumycetoma” (Journal of Antimicrobial Chemotherapy, 2025).
Where a name gives a salt, the structure may show the parent alone. Out of some 5,300 compounds screened, about 130 (2.5%) showed an effect of 50% or more. The list shows a part of the results. Bridge positions count the residues as written; N and C are the ends. Square brackets hold non-standard residues; d marks the D form. Peptide text beside a SMILES is read from it. * marks the point of attachment. ξ: configuration not given here. Heptanoyl(6-Me) = CC(C)CCCCC(=O)*; ξDab = NCCC(N)C(=O)O; ξT = CC(O)C(N)C(=O)O

tested on: M. mycetomatis strain mm55; details: primary screen, metabolic activity vs growth control; 96 h, 2 µM; inhibitor

| Structure (SMILES) | % viability [%] |
| --- | --- |
| CN1CCCC(n2nc(Cc3ccc(Cl)cc3)c3ccccc3c2=O)CC1 (stereo not drawn) [ONC0004220, azelastine hydrochloride] | 63.48 |
| O=C(CNC(=O)c1ccc(Cl)cc1)NO [ONC0003964, benurestat] | 71.17 |
| CN1CCCC1c1cccnc1 (stereo not drawn) [ONC0005499, nicotine bitartrate] | 91 |
| FC(F)(F)C(F)(F)C(F)(F)C(F)(F)C(F)(F)C(F)(F)C(F)(F)C(F)(F)Br [ONC0003656, 1bromoperfluorooctane] | 62.54 |
| O=c1oc(-c2ccc(C(F)(F)F)cc2)nn1Cc1cc(Cl)ccc1O [ONC0003641, bms191011] | 95.63 |
| CC(C)CCCCC(=O)NC(CCN)C(=O)NC(C(=O)NC(CCN)C(=O)NC1CCNC(=O)C(C(C)O)NC(=O)C(CCN)NC(=O)C(CCN)NC(=O)[C@H](CC(C)C)NC(=O)[C@@H](CC(C)C)NC(=O)C(CCN)NC1=O)C(C)O (stereo partly drawn) [ONC0001976, colistin sulfate] ({Heptanoyl(6-Me)}-[ξDab][ξT][ξDab][ξDab][ξDab][dL]L[ξDab][ξDab][ξT]; lactam 4-C) | 104.9 |
| COc1ccc(C(=O)N2CCCc3cc(C4=NNC(=O)SC4C)ccc32)cc1OC (stereo not drawn) [ONC0003273, emd53998] | 63.82 |
| CCCC(=O)Nc1ncnc2c1ncn2[C@@H]1O[C@@H]2COP(=O)(O)O[C@H]2[C@H]1OC(=O)CCC [ONC0003102, bucladesine sodium] | 84.05 |
| CN(C)CCC[C@@]1(c2ccc(F)cc2)OCc2cc(C#N)ccc21 [ONC0004016, escitalopram oxalate] | 68.38 |
| CC1=CC(=O)NS(=O)(=O)O1 [ONC0005569, acesulfame potassium] | 46 |
| CC(C)c1ccc(C(=O)NC(=N)N)cc1S(C)(=O)=O [ONC0004136, cariporide] | 93.97 |
| O=C(O[C@H]1CN2CCC1CC2)N1CCc2ccccc2[C@@H]1c1ccccc1 [ONC0005500, solifenacin succinate] | 90.93 |
| NC(=O)N/N=C/c1ccc([N+](=O)[O-])o1 [ONC0000465, nitrofurazone] | 62.24 |
| COc1ccc(-n2c(C)c([N+](=O)[O-])c3ccc(O)cc32)cc1 [ONC0005157, id8] | 120.6 |
| O=S(=O)(c1ccccc1)c1cnc2c(N3CCNCC3)cccc2c1 [ONC0004551, sb742457] | 64.91 |
| Cc1c(C(=O)NC2CCCCC2)sc2nc3ccc(N)cc3n12 [ONC0003595, ym298198desmethyl] | 135.5 |
| CC(C)C[C@H](NC(=O)[C@H](CCc1ccccc1)NC(=O)CN1CCOCC1)C(=O)N[C@@H](Cc1ccccc1)C(=O)N[C@@H](CC(C)C)C(=O)[C@@]1(C)CO1 [ONC0004468, carfilzomib pr171] | 121.2 |
| CCc1cncnc1N1CCN(Cc2nc3cc(C(F)(F)F)ccc3[nH]2)CC1 [ONC0001462, pf4708671] | 84.24 |

As entered above:
% viability [%] with `O=C(CNC(=O)c1ccc(Cl)cc1)NO` [ONC0003964, benurestat] reads 71.17
% viability [%] with `CC(C)CCCCC(=O)NC(CCN)C(=O)NC(C(=O)NC(CCN)C(=O)NC1CCNC(=O)C(C(C)O)NC(=O)C(CCN)NC(=O)C(CCN)NC(=O)[C@H](CC(C)C)NC(=O)[C@@H](CC(C)C)NC(=O)C(CCN)NC1=O)C(C)O` (stereo partly drawn) [ONC0001976, colistin sulfate] ({Heptanoyl(6-Me)}-[ξDab][ξT][ξDab][ξDab][ξDab][dL]L[ξDab][ξDab][ξT]; lactam 4-C) reads 104.9

More entries:

| Structure (SMILES) | % viability [%] |
| --- | --- |
| CN1CCCCC1CCN1c2ccccc2Sc2ccc([S+](C)[O-])cc21 (stereo not drawn) [ONC0004505, mesoridazine besylate] | 56.6 |
| CCN(CC)CCOc1ccc(/C(=C(\Cl)c2ccccc2)c2ccccc2)cc1 [ONC0000352, clomiphene citrate] | 95.76 |
| CCOc1cc(C(C)(C)C)ccc1C1=NC(C)(c2ccc(Cl)cc2)C(C)(c2ccc(Cl)cc2)N1C(=O)N1CCN(CCCS(C)(=O)=O)CC1 (stereo not drawn) [ONC0004446, rg7112 ro5045337] | 112.9 |
| C[N+](C)(CF)CCO [ONC0002638, fluorocholine chloride] | 99.75 |
| COc1ccc(S(=O)(=O)N2c3ccc(Cl)cc3[C@](O)(c3ccccc3Cl)[C@@H]2C(=O)N2CCC[C@H]2C(N)=O)cc1OC [ONC0003085, relcovaptan] | 84.65 |
| O=C(O)C[C@H]1CC[C@H](c2ccc(NC(=O)c3nnc(Nc4ccc(F)c(F)c4)o3)cc2)CC1 [ONC0004431, azd3988] | 109 |
| CO[C@@H]1[C@@H](OC(N)=O)[C@@H](O)[C@H](Oc2ccc3c(O)c(NC(=O)c4ccc(O)c(CC=C(C)C)c4)c(=O)oc3c2C)OC1(C)C [ONC0000515, novobiocin sodium] | 68.02 |
| O=C1c2ccccc2-n2c1nc1ccccc1c2=O [ONC0003517, tryptanthrin] | 43.27 |
| COc1cccc(OC)c1-c1cc(C(=O)NC2(C(=O)O)C3CC4CC(C3)CC2C4)nn1-c1ccnc2cc(Cl)ccc12 (stereo not drawn) [ONC0005555, meclinertant] | 87.75 |
| Cc1ccc2c(-c3ccccc3)nc(=O)n(C(C)C)c2c1 [ONC0004100, proquazone] | 145.3 |
| C[N+]1([O-])[C@@H]2C[C@@H](OC(=O)[C@H](CO)c3ccccc3)C[C@H]1[C@@H]1O[C@@H]12 (stereo partly drawn) [ONC0002370, scopolaminenoxide] | 76.11 |
| CN(NC(=O)CC(=O)NN(C)C(=S)c1ccccc1)C(=S)c1ccccc1 [ONC0004916, elesclomol sta4783] | 92.53 |
| CC(C)[C@H](N)C(=O)OCCOCn1cnc2c(=O)[nH]c(N)nc21 [ONC0004144, valacyclovir hydrochloride] | 101.2 |
| CN(C)C(=N)N=C(N)N [ONC0004003, metformin hydrochloride] | 75.81 |
| CC[C@H](NC(C)C)[C@H](O)c1ccc(O)c2[nH]c(=O)ccc12 (racemic) [ONC0000846, procaterol] | 72.96 |
| CCN1CCN(C(=O)N[C@@H](C(=O)N[C@@H]2C(=O)N3[C@@H]2SC(C)(C)[C@@H]3C(=O)O)c2ccccc2)C(=O)C1=O [ONC0000492, piperacillin sodium] | 73.47 |
| NCCc1ccccn1 [ONC0003041, 2pyridylethylamine] | 110.5 |
| Cc1c(F)cc(C(=O)NC2CC2)cc1-c1c(F)cn2c(C(C)(C)C)nnc2c1F [ONC0000105, al8697] | 73.87 |
